Values from PubChem BioAssay AID1259405 (NCATS, 2018).
Screen: 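Knock-downs that lift recombinant protein yield in hamster ovary cells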 (primary screen). Cells: Chinese hamster CHO-K1 ovary cells with stable secreted eGFP expression. Reagents: single siRNA against mouse genes, 0.8 pmol siRNA per well (2 µl of 400 nM stock). Duration: 3 days. Detection: 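Per-well intracellular GFP measured by laser scanning cytometry, plus viability from ATP luminescence, each relative to plate median of non-targeting control wells, in %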. Reading the numbers: GFP, % of control: higher = more GFP per well, higher productivity; viability (ATP), % of control: higher = more viable cells (more ATP). Rule for the call: 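Called active when intracellular GFP, relative to negative control, is at or above 120%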.
The whole screen tested about 50,000 reagents; below is a part drawn at random. In the full data, about 4,000 (8%) got an active call. 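Mouse siRNA library applied to hamster cells; one well for each siRNA.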 Entries without a mark were called inactive. The numbers tell different reagents against one gene apart. Reagent sequences are not shown.

What did the screen give for Pxdn #1?
GFP, % of control: 119; viability (ATP), % of control: 100

Which result is listed for Pxdn #2?
GFP, % of control: 69; viability (ATP), % of control: 85.4

How did the screen score Pxdn #3?
GFP, % of control: 67; viability (ATP), % of control: 71.5

With Fktn #1, what was measured?
GFP, % of control: 58.5; viability (ATP), % of control: 65.4

What did the screen give for Fktn #2?
GFP, % of control: 98.6; viability (ATP), % of control: 74.1

With Fktn #3, what was measured?
GFP, % of control: 65.4; viability (ATP), % of control: 82.1

How did the screen score Galt #1?
GFP, % of control: 156 (active); viability (ATP), % of control: 78

For Galt #2, what does the deposit list?
GFP, % of control: 102; viability (ATP), % of control: 69.1

With Galt #3, what does the deposit list?
GFP, % of control: 96.8; viability (ATP), % of control: 131

Which result is listed for Btd #1?
GFP, % of control: 154 (active); viability (ATP), % of control: 103

With Btd #2, what was measured?
GFP, % of control: 131 (active); viability (ATP), % of control: 91.9

What did the screen give for Btd #3?
GFP, % of control: 85; viability (ATP), % of control: 79

What is on record for Mylip #1?
GFP, % of control: 49.6; viability (ATP), % of control: 46.5

How did the screen score Mylip #2?
GFP, % of control: 82.4; viability (ATP), % of control: 74.4

With A430005L14Rik #1, what does the deposit list?
GFP, % of control: 58.4; viability (ATP), % of control: 58.9

With A430005L14Rik #2, how do the results read?
GFP, % of control: 60.6; viability (ATP), % of control: 73.5

What did the screen give for A430005L14Rik #3?
GFP, % of control: 70.6; viability (ATP), % of control: 76

For C130046B21Rik #1, how do the results read?
GFP, % of control: 33.9; viability (ATP), % of control: 37.2

For C130046B21Rik #2, what was measured?
GFP, % of control: 60.4; viability (ATP), % of control: 77.1

How did the screen score C130046B21Rik #3?
GFP, % of control: 88.1; viability (ATP), % of control: 93

What is on record for Grsf1 #1?
GFP, % of control: 76.5; viability (ATP), % of control: 61.7

For Grsf1 #2, what was measured?
GFP, % of control: 61.6; viability (ATP), % of control: 67.4

What did the screen give for Grsf1 #3?
GFP, % of control: 64.6; viability (ATP), % of control: 68

What did the screen give for Tafa2 #1?
GFP, % of control: 99.5; viability (ATP), % of control: 87.5

What is on record for Tafa2 #2?
GFP, % of control: 69.4; viability (ATP), % of control: 79.4

How did the screen score Tafa2 #3?
GFP, % of control: 60; viability (ATP), % of control: 52.7

How did the screen score Elmod2 #1?
GFP, % of control: 61.5; viability (ATP), % of control: 49.7

How did the screen score Elmod2 #2?
GFP, % of control: 60.8; viability (ATP), % of control: 61.2

For Elmod2 #3, how do the results read?
GFP, % of control: 87.6; viability (ATP), % of control: 85

Ordered by “viability (ATP), % of control” (descending): 2 of the entries above
Btd #2 → GFP, % of control: 131 (active); viability (ATP), % of control: 91.9
Btd #3 → GFP, % of control: 85; viability (ATP), % of control: 79
